Assay results published in patent publication US20250304621A1, “POLYPEPTIDE FOR SPECIFICALLY BLOCKING BINDING OF ACVR1C TO GREM1 AND USE THEREOF” (The Seventh Affiliated Hospital, Sun Yat-Sen University, priority 2024, published 2025).
Results are given in words; binding and its absence hold for the method and conditions named. For some of these results: Binding seen in cells or lysates may run through a third protein. Some entries that bind do so weakly or less than the wild type. For some of these results: Tags and fused reporters may be left off the sequences shown.

Tests used:
[1] = biological target: T1, ACVR1C (activin receptor type-1C) (human) (UniProt Q8NER5); assay: co-IP with Ha-tagged GREM1 in HCT116 cells, immunoblot (FIG. 3)
T1 sequence (looked up): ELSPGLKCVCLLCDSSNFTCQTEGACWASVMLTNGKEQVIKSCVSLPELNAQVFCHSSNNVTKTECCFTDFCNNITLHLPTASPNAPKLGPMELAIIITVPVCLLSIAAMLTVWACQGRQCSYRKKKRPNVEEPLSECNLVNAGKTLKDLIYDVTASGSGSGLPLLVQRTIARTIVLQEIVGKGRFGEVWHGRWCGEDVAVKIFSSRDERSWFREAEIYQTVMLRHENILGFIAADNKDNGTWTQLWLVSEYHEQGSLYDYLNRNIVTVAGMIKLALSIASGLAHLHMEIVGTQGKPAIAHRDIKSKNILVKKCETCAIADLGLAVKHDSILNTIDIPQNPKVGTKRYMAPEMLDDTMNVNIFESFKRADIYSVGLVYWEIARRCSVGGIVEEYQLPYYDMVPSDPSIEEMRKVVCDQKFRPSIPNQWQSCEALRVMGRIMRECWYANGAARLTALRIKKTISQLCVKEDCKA

Flag-tagged ACVR1C = biological target: T2, Flag-tagged ACVR1C (UniProt Q8NER5); assay: co-IP with Flag-tagged ACVR1C, immunoblot (FIG. 4)
T2 sequence (looked up): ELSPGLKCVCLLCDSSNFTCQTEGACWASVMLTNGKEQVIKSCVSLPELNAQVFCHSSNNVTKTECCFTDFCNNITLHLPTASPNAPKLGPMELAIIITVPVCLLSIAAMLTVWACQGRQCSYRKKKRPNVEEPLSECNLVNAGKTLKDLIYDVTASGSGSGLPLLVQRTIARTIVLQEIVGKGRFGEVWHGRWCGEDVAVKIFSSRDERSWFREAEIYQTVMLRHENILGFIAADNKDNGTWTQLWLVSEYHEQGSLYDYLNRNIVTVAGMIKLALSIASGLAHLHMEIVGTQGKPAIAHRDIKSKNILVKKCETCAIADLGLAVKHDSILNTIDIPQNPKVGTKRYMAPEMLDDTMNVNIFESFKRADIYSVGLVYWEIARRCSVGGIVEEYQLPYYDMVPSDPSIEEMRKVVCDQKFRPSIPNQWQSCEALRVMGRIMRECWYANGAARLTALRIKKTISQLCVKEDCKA

[2] = biological target: T1, ACVR1C (activin receptor type-1C) (human); assay: confocal microscopy, co-localization in SW480 cells (FIG. 5)
[3] = biological target: T3, Fc-tagged ACVR1C extracellular domain (ACVR1C-ECD, AA 1-113) (Homo sapiens (Human)) (UniProt Q8NER5); assay: pull-down with purified proteins (FIG. 6)
T3 sequence: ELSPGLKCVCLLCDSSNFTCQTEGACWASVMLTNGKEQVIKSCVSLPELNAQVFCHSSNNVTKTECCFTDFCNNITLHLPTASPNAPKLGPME

B1: Ha-tagged GREM1 (ligand, not shown: small tags and cut ends)
chain: KKKGSQGAIPPPDKAQHNDSEQTQSPQQPGSRNRGRGQGRGTAMPGEEVLESSQEALHVTERKYLKRDWCKTQPLKQTIHEEGCNSRTIINRFCYGQCNSFYIPRHIRKEEGSFQSCSFCKPKKFTTMMVTLNCPELQPPTKKKRVTRVKQCRCISIDLD
Question: Which binding [1] does the source give for B1 here?
Answer: binds

B2: GREM1 (ligand)
chain: KKKGSQGAIPPPDKAQHNDSEQTQSPQQPGSRNRGRGQGRGTAMPGEEVLESSQEALHVTERKYLKRDWCKTQPLKQTIHEEGCNSRTIINRFCYGQCNSFYIPRHIRKEEGSFQSCSFCKPKKFTTMMVTLNCPELQPPTKKKRVTRVKQCRCISIDLD
Question: How did the binding (Flag-tagged ACVR1C) turn out when B2 was run?
Answer: binds

Question: What about the binding [2] of the same binder?
Answer: binds

B3: his-tagged full-length GREM1 (ligand, not shown: small tags and cut ends)
chain: KKKGSQGAIPPPDKAQHNDSEQTQSPQQPGSRNRGRGQGRGTAMPGEEVLESSQEALHVTERKYLKRDWCKTQPLKQTIHEEGCNSRTIINRFCYGQCNSFYIPRHIRKEEGSFQSCSFCKPKKFTTMMVTLNCPELQPPTKKKRVTRVKQCRCISIDLD
Question: For B3, which binding [3] is on record?
Answer: binds
